Data on 56 compounds can be found in PubChem BioAssay AID2685 (National Center for Advancing Translational Sciences (NCATS), 2010).

This assay in a line: qHTS Assay for Lipid Storage Modulators in Drosophila S3 Cells.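 On cell number change: cells counted by Cell Tracker Red CMTPX staining in the red channel.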 To be noted: BODIPY lipid droplet fluorescence, 18-24 h; for cell number change: measured here: cell count max response, cells fed with added oleic acid. A digest of the protocol: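 Laser-scanning cytometry quantifies lipid droplet accumulation (500–530 nm total intensity; droplet/cell object ratio) in oleic acid-fed (400 uM added) Drosophila S3 cells treated with a concentration series. 20 uM Triacsin C defined 100% inhibition.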
(qHTS replaces the single test concentration by a dilution series.)

Where [1] appears, read: measured here: cell number channel AC50, cells fed with added oleic acid.
The mark [2] stands for this setting: measured here: lipid fluorescence (Fed channel) AC50, cells fed with added oleic acid.

Some of the results follow. The main result of the screen is listed elsewhere. These columns were measured beside it and carry no call. The list favours compounds with an active or inconclusive main result. Words in brackets tell the shape of the fitted curve; partial curves, single points and poor fits give uncertain potencies.

`COCCCNC(=O)C1CC(=O)N(c2ccc(C)cc2)C1` (centres undefined): the cell number change is -23.8%. For the same compound, the AC50 under setting [1] was 4.61 µM [falling, single point]. Further, under setting [2], the AC50 is 18.4 µM [falling, single point].
For the compound `O=C(Cc1ccccc1)NCCSC1CCCCC1`, the cell number change is 31.3%.
On the same count and under the same terms, then `CN(C)S(=O)(=O)c1cccc(NC(=O)Cn2cnc3ccccc3c2=O)c1`, with -6.06%.
Consider `CC1(C)Cc2c(sc3nnn(CC(=O)Nc4ccccc4)c(=O)c23)CO1`, for which the cell number change was -44.6%. The AC50 under setting [1] is 29.1 µM [falling, single point]. Besides, the AC50 under setting [2] is 32.6 µM [falling, single point].
In the case of `CCCn1c2ccc(C)cc2c2nnc(SCCN3CCCCC3)nc21`, the cell number change is 37.5%. Also, the AC50 under setting [1] was 8.2 µM [rising, single point].
Regarding `N#CCCN(C(=O)COC(=O)C1CCN(S(=O)(=O)c2cccs2)CC1)c1ccccc1`, the cell number change was 5.76%. Also, the AC50 under setting [1] was 0.146 µM [falling, full curve, poor fit]. For the same compound, under setting [2], the AC50 was 0.116 µM [falling, full curve, poor fit].
`COCCN(CC(=O)Nc1cccc(C)c1C)C(=O)Cn1cnc2ccccc2c1=O`: the cell number change was -38.8%. Besides, the AC50 under setting [1] was 6.51 µM [falling, full curve, poor fit]. Besides, the AC50 under setting [2] was 0.58 µM [falling, single point].
As to `COc1ccc(CNS(=O)(=O)CCNC(=O)c2ccc(OC)cc2)cc1`, the cell number change is -9.78%. Further, the AC50 under setting [2] is 6.51 µM [falling, single point].
`C=CCSc1nc2c(cc1C#N)CCC2`: the half-maximal activity concentration (AC50) under setting [2] is 6.51 µM [rising, single point].
`Cc1cc(C)n(CC(=O)Nc2ccc(N3CCOCC3)c(Cl)c2)c(=O)c1C#N`: the cell number change came out at 12.6%.
Turning to `O=C(O)c1[nH]c2ccc([N+](=O)[O-])cc2c1-c1ccccc1`, the cell number change was -33.2%. Also, the AC50 under setting [2] is 6.51 µM [falling, full curve, poor fit].
With `C=CCn1c(C)cc(C(=O)COC(=O)c2cncc(Br)c2)c1C`, the cell number change came to 8.14%. In addition, the AC50 under setting [2] is 0.184 µM [falling, full curve, poor fit].
As for `CCOC(=O)CC1=CC(=O)Nc2ccccc2N1`, the cell number change is 8.36%. Moreover, under setting [2], the concentration at half-maximal activity (AC50) is 2.06 µM [rising, full curve].
As for `O=C(NCc1ccc2c(c1)OCO2)c1ccc(-c2ccc(Cl)cc2)o1`, the cell number change was 35.6%. The AC50 under setting [1] is 7.31 µM [rising, partial curve, poor fit]. In addition, the AC50 under setting [2] was 1.16 µM [rising, single point].
For `COC(=O)/C(C#N)=C/c1ccc(C)o1`, the cell number change was -9.15%. For the same compound, the AC50 under setting [1] was 7.31 µM [falling, single point]. Further, the AC50 under setting [2] is 2.06 µM [falling, partial curve].
As to `CNC(=O)CNC(=O)Nc1ccc(Cl)c(Cl)c1`, the cell number change is -23.7%. Besides, the AC50 under setting [1] was 3.26 µM [falling, single point].
With `CC(=O)Oc1ccc(C2C3=C(CC(C)(C)CC3=O)Nc3cc4c(cc32)OCCO4)cc1` (centres undefined), the cell number change came out at 2.33%. Further, the AC50 under setting [2] is 0.259 µM [falling, full curve].
Regarding `CCOCCCNC(=O)C(c1ccc(Cl)cc1)N1CCC2(CC1)OCCO2` (centres undefined), the cell number change is -0.317%. Under setting [2], the AC50 was 3.66 µM [falling, single point].
With `COC(=O)c1c(C)nc2ccccc2c1-c1ccccc1`, the cell number change was 6.82%. Further, the AC50 under setting [2] was 4.11 µM [rising, full curve].
Consider `COc1ccc(-c2nnc(SCC(=O)NNC(=O)Cc3ccccc3)n2C)cc1OC`, for which the cell number change came out at 21.8%. Under setting [2], the AC50 was 0.184 µM [rising, full curve, poor fit].
Regarding `CCCCN(C)CCNC(=O)CN1C(=O)CSc2ccc(S(=O)(=O)N3CCCC3)cc21`, the cell number change turned out to be 8.9%. Also, the AC50 under setting [1] was 0.058 µM [rising, full curve, poor fit].
As to `Cc1nc2c(ccc3nc(NC(=O)c4ccc5c(c4)OCCO5)sc32)s1`, the cell number change was -63.9%. Under setting [1], the AC50 is 1.03 µM [falling, full curve, poor fit]. Also, the AC50 under setting [2] is 32.6 µM [falling, partial curve, poor fit].
Consider `Cc1cccc2sc(N(CCN(C)C)C(=O)c3ccc4ccccc4c3)nc12`, for which the cell number change is -32.6%. For the same compound, under setting [1], the AC50 is 32.6 µM [falling, single point]. The AC50 under setting [2] was 32.6 µM [rising, single point].
Consider `COc1ccc(CNC(=O)c2sccc2-c2ccccc2)cc1OC`, for which the cell number change was -8.09%. For the same compound, the AC50 under setting [2] was 6.51 µM [falling, single point].
As for `Cc1cc(C)cc(NC(=O)CCn2c(=S)[nH]c3ccccc3c2=O)c1`, the cell number change came out at 98.6%. Moreover, the AC50 under setting [1] is 18.4 µM [rising, partial curve].
On to `COCCCn1c(=O)/c(=C\c2ccccc2OC(F)F)s/c1=C(/C#N)C(=O)NCCOC`, for which the AC50 under setting [1] is 5.8 µM [rising, partial curve].
For `COc1cc(C)nc(N2CCCC(C(=O)NC3CCC(C)CC3)C2)n1` (centres undefined), the cell number change turned out to be 17.8%. Moreover, under setting [2], the AC50 was 0.517 µM [rising, full curve, poor fit].
For `O=S(=O)(NCCc1ccncc1)c1ccccc1`, the cell number change is 11.3%. Besides, the AC50 under setting [2] is 6.51 µM [rising, single point].
Turning to `CC(C(=O)NC(=O)NC1CCCCC1)N1CCN(c2ccccn2)CC1` (centres undefined), the cell number change was -10.9%. Moreover, the AC50 under setting [2] is 2.91 µM [falling, full curve, poor fit].
On to `COCCN1Cc2cccc(C(=O)Nc3ccc(C)c(C)c3)c2C1=O`, for which the cell number change came out at 3.28%.
As for `CC(C)C(=O)Nc1ccc(C(=O)N2CCN(C(=O)c3ccco3)CC2)cc1`, the AC50 under setting [2] was 6.51 µM [falling, partial curve].
Regarding `Cc1ccc(S(=O)(=O)N(c2nc(N(C)C)nc(N(C)C)n2)n2cnnc2)cc1`, the cell number change was 0.234%. The AC50 under setting [2] was 9.2 µM [rising, partial curve].
Regarding `CCc1cc(C(=O)NCC(c2cccs2)N2CCOCC2)sc1C` (centres undefined), the cell number change was determined as 32.9%. The AC50 under setting [1] was 11.6 µM [rising, partial curve, poor fit]. Besides, the AC50 under setting [2] was 9.2 µM [rising, partial curve, poor fit].
`COc1ccc(S(=O)(=O)N2CCC(C(=O)N[C@H](C(=O)NC3CCCC3)C(C)C)CC2)cc1`: the AC50 was 7.31 µM [falling, single point] under setting [1] and 6.51 µM [falling, single point] under setting [2].
As to `COc1ccc(OC)c(NC(=O)COC(=O)CSc2ccc(Cl)cc2)c1`, the cell number change was -9.95%. Under setting [2], the AC50 was 1.03 µM [falling, partial curve].
As for `C=CCNC(=O)COC(=O)c1cc(S(=O)(=O)N2CCCCC2)ccc1Cl`, the cell number change came out at 53.9%. Besides, under setting [1], the AC50 is 1.3 µM [rising, full curve, poor fit]. Further, the AC50 under setting [2] was 0.116 µM [rising, full curve].
Regarding `CC1CCc2sc3nc(N4CCN(CCO)CC4)n4ncnc4c3c2C1` (centres undefined), the cell number change is -19.5%.
On to `C=C[C@@](C)(O)CC[C@@H]1[C@@]2(C)CCCC(C)(C)[C@@H]2CC[C@@]1(C)O`, for which the cell number change is -27.3%. The AC50 under setting [2] is 16.4 µM [falling, single point].
For the compound `CCS(=O)(=O)N1CCN(Cc2ccc([N+](=O)[O-])cc2)CC1`, the cell number change was 13.7%.
Take `CN(c1ccc(OC(=O)CC2OC(=O)c3ccccc32)cc1)S(=O)(=O)c1ccccc1` (centres undefined): the cell number change was -20.3%. Further, under setting [2], the AC50 was 14.6 µM [rising, partial curve].
For the compound `Cn1c(Cn2nnc(-c3ccccc3)n2)nnc1SCc1ccccc1Cl`, the cell number change amounted to 14.3%. Besides, under setting [1], the AC50 was 8.2 µM [rising, partial curve, poor fit].
Turning to `CC(=O)N(C)c1ccc(NC(=O)c2cnn(C)c2)cc1`, the cell number change was -67%. Further, the AC50 under setting [1] was 25.9 µM [falling, partial curve, poor fit].
As to `Cc1ccc(C(=O)NC(=S)Nc2cccc(NC(=O)c3ccccc3)c2)cc1[N+](=O)[O-]`, the cell number change is -41.1%. For the same compound, under setting [1], the AC50 is 29.1 µM [falling, single point]. The AC50 under setting [2] is 23.1 µM [falling, single point].
As to `COc1ccc(NS(=O)(=O)c2cc(NC(=O)c3ccc(=O)[nH]c3)ccc2N2CCCC2)cc1`, the cell number change was -15.6%. For the same compound, the AC50 under setting [2] was 29.1 µM [falling, partial curve, poor fit].
In the case of `Cc1ccc(CNC(=O)CCCc2ccccc2)cc1`, the cell number change was 38.9%. Under setting [1], the AC50 is 18.4 µM [rising, partial curve].
Turning to `COc1ccc(C)cc1NC(=O)CN(C)S(=O)(=O)c1cc(C)ccc1OC`, the cell number change was 45.4%. Also, the AC50 under setting [1] is 2.31 µM [rising, partial curve]. Further, under setting [2], the AC50 was 13 µM [rising, partial curve, poor fit].
For `CCOC(=O)c1sc(NC(=O)CSc2nnc(Cc3ccccc3)o2)c(C#N)c1C`, the AC50 under setting [1] is 2.31 µM [rising, partial curve] and the concentration at half-maximal activity (AC50) under setting [2] is 2.91 µM [rising, partial curve].
On to `COc1ccc(NC(=O)C(=O)c2cn(CC(=O)N3CCCC3)c3ccccc23)cc1OC`, for which the cell number change was -7.89%. Further, the AC50 under setting [1] was 6.51 µM [falling, single point].
Take `CC(C)Cc1ccc(C(C)C(=O)Nc2ccccc2O)cc1` (centres undefined): the cell number change is -37.5%. Further, under setting [1], the AC50 is 0.0731 µM [falling, full curve]. Besides, the AC50 under setting [2] was 0.00461 µM [falling, full curve, poor fit].
As for `O=C(CSc1ccc(Cl)cc1)Nc1ccc(N2CCN(C(=O)c3ccc(Cl)cc3)CC2)cc1`, the cell number change was -13.5%. The AC50 under setting [1] is 0.731 µM [falling, single point].
In the case of `COc1ccc(S(=O)(=O)n2ccc(C(C)Oc3ccc(-c4ccccc4)c(F)c3)n2)cc1` (centres undefined), the cell number change stood at 89.7%. Also, under setting [1], the AC50 was 29.1 µM [rising, single point]. In addition, the half-maximal activity concentration (AC50) under setting [2] was 29.1 µM [rising, single point].
Regarding `C[C@@H](NC(=O)CN1C(=O)c2ccccc2S1(=O)=O)c1ccccc1`, the cell number change was 5.73%. Further, the AC50 under setting [2] was 29.1 µM [falling, single point].
In the case of `CC(C)CC(=O)Nc1ccc(-c2nc3ccccc3c(=O)o2)cc1`, the cell number change was -9.55%.
For the compound `CC1CC(=O)N(CC(=O)Nc2ccc(F)cc2)c2ccccc2S1(=O)=O` (centres undefined), the cell number change was -9.54%. Further, under setting [2], the AC50 was 29.1 µM [falling, single point].
For the compound `Cc1ccc(C(=O)Nc2cccc(-c3ccc(N4CCOCC4)nn3)c2)cc1C`, under setting [2], the AC50 is 0.731 µM [rising, partial curve].
Still for that read-out and setting: then `O=C(COC(=O)c1cc[n+]([O-])cc1)Nc1ccc(Cl)cc1C(F)(F)F`, with 6.51 µM [falling, single point].

One may read the AC50 as the concentration at which the activity in the assay is half-maximal. Low values mean greater potency, high ones weaker potency.
